Measured values: PubChem BioAssay AID2685 (National Center for Advancing Translational Sciences (NCATS), 2010)
The other results are listed elsewhere or left out. Further columns of the screen follow, without active or inactive calls. The list favours compounds with an active or inconclusive main result. The note in brackets gives the kind of curve behind each potency; many fits are weak.

Assay: qHTS Assay for Lipid Storage Modulators in Drosophila S3 Cells;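 on cell number change: cells counted by Cell Tracker Red CMTPX staining in the red channel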
Settings: BODIPY lipid droplet fluorescence, 18-24 h; for cell number change: measured here: cell count max response, cells fed with added oleic acid
In short: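 Drosophila S3 cells loaded with oleic acid (400 uM, as added) and compounds at several concentrations; lipid droplets imaged by 488-nm laser-scanning cytometry, 500–530 nm intensity and object ratio to cell channel. Percent activity normalized to 20 uM Triacsin C.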

[1] = measured here: cell number channel AC50, cells fed with added oleic acid
[2] = measured here: lipid fluorescence (Fed channel) AC50, cells fed with added oleic acid

Row | SMILES | cell number change | AC50 [1] | AC50 [2]
1 | COc1cc(/C=C2\C(=N)N3N=CSC3=NC2=O)cc(Br)c1OC(=O)c1ccco1 | 8.36% | 0.146 µM [falling, full curve, poor fit] | –
2 | CCn1c(SCC(=O)N2CCN(c3ccccc3)CC2)nnc1-c1ccoc1C | 28% | – | 0.231 µM [falling, full curve]
3 | O=C(c1ccc(Cl)s1)N1CCN(c2nc3ccccc3s2)CC1 | -0.187% | – | 18.4 µM [falling, single point]
4 | COC(=O)C1C(=O)c2c([nH]c(C(=O)OCCOC(C)C)c2C)CC1C (centres undefined) | 62.5% | 7.31 µM [rising, partial curve] | 1.46 µM [rising, full curve]
5 | O=c1c2ccccc2c2ccccc2c(=O)n1Cc1ccco1 | 0.339% | – | –
6 | CC1C/C(=N/Nc2nc3ccccc3[nH]2)CC(C)(C)C1 (centres undefined) | -24.8% | – | –
7 | Cc1cccc(C)c1Nc1nnc(SCC(=O)Nc2sccc2C#N)s1 | 5.55% | – | 20.6 µM [rising, partial curve]
8 | O=C(O)C1C2C=CC3(CN(Cc4ccco4)C(=O)C13)O2 (centres undefined) | 33.3% | – | 4.11 µM [rising, single point]
9 | Cc1cc(C)cc(NC(=O)c2ccc(CN3CCc4ccccc4C3)cc2)c1 | -13.4% | – | –
10 | CCOC(=O)C1CCN(S(=O)(=O)c2ccc3c4c2CC(=O)N4CC(C)S3)CC1 (centres undefined) | 7.49% | 1.46 µM [rising, partial curve, poor fit] | –
11 | CCOC(=O)COc1ccc(C(=O)NC2CCCCC2)cc1 | -191% | 5.8 µM [falling, full curve] | 3.66 µM [falling, full curve]
12 | Cc1ccc(C(=O)N/C(=C\c2ccco2)C(=O)NCCCn2ccnc2)cc1C | – | 2.91 µM [rising, single point] | 3.26 µM [rising, single point]
13 | CC(=O)c1ccc(C)cc1OC(=O)c1cccc(F)c1 | -13.2% | 2.31 µM [falling, single point] | –
14 | COc1ccc(C(CC(=O)Nc2ccc(C)cn2)N2Cc3ccccc3C2=O)cc1 (centres undefined) | – | – | 0.651 µM [rising, single point]
15 | COc1ccc2oc(C)c(C(=O)c3ccc(C)cc3)c2c1 | 7.8% | – | –
16 | Cc1ccc(NC2c3ncccc3C(=O)N2Cc2cccs2)cc1C (centres undefined) | -22.7% | – | 29.1 µM [falling, single point]
17 | CCOC(=O)C1CCCN(C(=O)c2c(-c3ccccc3Cl)noc2C)C1 (centres undefined) | 59% | 16.4 µM [rising, single point] | –
18 | C(=N\c1nc2ccccc2[nH]1)/c1cccs1 | 2.43% | – | 3.26 µM [falling, single point]
19 | ClCc1csc(-c2ccc(Cl)cc2)n1 | 19.8% | – | 0.092 µM [rising, full curve, poor fit]
20 | CC1CCCN(S(=O)(=O)c2ccc(NC(=O)CN3CCN(C)CC3)cc2)C1 (centres undefined) | 24.3% | – | 29.1 µM [rising, single point]
21 | CCOC(=O)N1CCN(CC(O)COc2ccc(OC)cc2C(C)(C)C)CC1 (centres undefined) | -30.1% | 18.4 µM [falling, single point] | 29.1 µM [falling, partial curve, poor fit]

Row | SMILES | cell number change | AC50 [1] | AC50 [2]
22 | CCOc1ccc(NC(=O)c2ccc(CSc3nnnn3C)cc2)cc1 | -26.8% | – | –
23 | COc1ccccc1N1CCN(c2cc(=O)n(-c3ccccc3Cl)c(=O)[nH]2)CC1 | 28.5% | – | 8.2 µM [rising, single point]
24 | CC(Oc1ccccc1)C(=O)Nc1cccc([N+](=O)[O-])c1 (centres undefined) | -13.5% | – | 0.00461 µM [falling, full curve, poor fit]
25 | CCOc1ccccc1OCC(=O)NCc1ccco1 | 8.56% | – | –
26 | O=S(=O)(Cc1ccc(Cl)cc1)N1CCN(c2ncccn2)CC1 | – | – | 0.0326 µM [rising, full curve]
27 | Cn1c(SCC(=O)NCc2ccco2)nnc1C1CCCC1 | 21.1% | – | 32.6 µM [rising, partial curve]
28 | O=C(COC(=O)c1ccc2c(c1)OCO2)NC1CCS(=O)(=O)C1 (centres undefined) | 2.37% | – | –
29 | N#C/C(=N\Nc1ccccc1)C(=N)N1CCCCC1 | 12% | – | 0.00517 µM [falling, full curve, poor fit]
30 | O=C(O)c1ccccc1Nc1ccc([N+](=O)[O-])cc1 | 76.3% | 29.1 µM [rising, single point] | 29.1 µM [rising, single point]
31 | Nc1nnc(-c2ccccc2[N+](=O)[O-])o1 | 3.97% | – | 3.26 µM [rising, single point]
32 | CC(C)(CSc1nncn1/N=C/c1ccco1)NS(=O)(=O)c1ccc(Cl)cc1 | – | – | 11.6 µM [rising, partial curve]
33 | CCC(C(=O)Nc1cccc(C(F)(F)F)c1)c1ccccc1 (centres undefined) | -37.7% | 4.11 µM [falling, partial curve] | –
34 | Cc1c(N=Cc2cc3c(cc2Cl)OCO3)c(=O)n(-c2ccccc2)n1C | -9.86% | – | 0.00411 µM [falling, full curve, poor fit]
35 | CCCCSc1nnc2c(n1)OC=Nc1ccccc1-2 | 24.4% | – | 13 µM [rising, partial curve, poor fit]
36 | Cc1ccccc1[C@@]1(C)ON(c2ccccc2C(F)(F)F)C1=O | -86.4% | 20.6 µM [falling, partial curve] | –
37 | O=C(C1CCN(S(=O)(=O)c2cccs2)CC1)N1CCCCC1 | 0.54% | – | 0.58 µM [rising, single point]
38 | CCc1ccccc1NC(=S)NN | – | – | 0.116 µM [rising, full curve]
39 | Cc1nn(C)c(C)c1C1C(C#N)=C(N)OC2=C1C(=O)CC(C)(C)C2 (centres undefined) | 42.9% | 29.1 µM [rising, single point] | 18.4 µM [rising, single point]
40 | CCN(c1ccccc1)S(=O)(=O)c1ccc(OC)c(NC(=O)Cc2ccc(F)cc2)c1 | -8.69% | 6.51 µM [rising, single point] | 1.46 µM [falling, partial curve]
41 | COc1cc(C2Nc3ccccc3C(=O)N2c2ccc3c(c2)OCCO3)ccc1OCC(C)C (centres undefined) | 5.95% | – | 0.517 µM [rising, single point]
42 | CC(=N\NC(=O)c1ccc([N+](=O)[O-])cc1)/C(=N/O)C(=O)Nc1ccccc1 | -34.5% | 32.6 µM [falling, single point] | –

Row | SMILES | cell number change | AC50 [1] | AC50 [2]
43 | CC1(C)CC(=O)C2=C(C1)N=C1SCCC(=O)N1C2c1ccc(C(F)(F)F)cc1 (centres undefined) | 33.9% | 10.3 µM [rising, single point] | –
44 | COc1ccc(-c2cn3c(C)c(C(=O)NCCN4CCOCC4)sc3n2)cc1 | – | – | 3.26 µM [rising, single point]
45 | C=CCCC(=O)N1CCC(Oc2cccc(C(=O)NCc3ccccn3)c2)CC1 | 17.9% | – | 0.184 µM [rising, full curve, poor fit]
46 | CC1(C)CC(NC(=O)C2CCCCC2)CC(C)(C)N1 | -5.22% | – | –
47 | Cc1ccc2nc(Cl)c(CN(C(=O)c3cnccn3)C3CCCCC3)cc2c1 | -0.862% | – | 0.82 µM [rising, single point]
48 | COc1ccc(C(=O)NCCSc2ccccc2)cc1 | – | 0.731 µM [rising, single point] | 0.58 µM [rising, single point]
49 | Cc1cc(NC(=O)COC(=O)CCCOc2ccc(Cl)cc2C)no1 | -30% | 0.103 µM [falling, full curve, poor fit] | 7.31 µM [falling, partial curve]
50 | COc1cc(CCC(=O)OCC(=O)Nc2ccccc2F)cc(OC)c1OC | 40.4% | 18.4 µM [rising, partial curve, poor fit] | 18.4 µM [rising, partial curve, poor fit]
51 | COc1cccc(NC(=O)C2C3C=CC(O3)C2C(=O)O)c1 (centres undefined) | -7.41% | – | 2.31 µM [rising, partial curve]
52 | COc1ccccc1OCc1ccc(C(=O)c2ccccc2)cc1 | -2.92% | – | –
53 | CCSC(C)CC1CC(=O)CC(=O)C1 (centres undefined) | -62.7% | 14.6 µM [falling, partial curve] | –
54 | COc1ccc(/C(O)=C/c2nc3ccccc3n(-c3ccccc3)c2=O)cc1 | 94.9% | 0.58 µM [rising, full curve] | 0.58 µM [rising, full curve]
55 | O=C(NC(=S)NCC1CCCO1)c1ccccc1 (centres undefined) | -4.29% | – | 9.2 µM [rising, partial curve, poor fit]
56 | Cc1ccc2nc(/C(C#N)=C\c3ccc([N+](=O)[O-])o3)[nH]c2c1 | – | – | 10.3 µM [falling, single point]
57 | CN(CCC#N)C(=O)CSc1nc2scc(-c3ccccc3)c2c(=O)[nH]1 | 12.3% | – | 5.17 µM [rising, full curve, poor fit]
58 | O=C(NCc1cccnc1)c1cccc2c1C(=O)N(Cc1cccnc1)C2 | – | 1.3 µM [rising, partial curve] | 3.26 µM [rising, partial curve]
59 | CCC(C)NC(=O)c1cc(-c2ccc(OC)cc2)on1 (centres undefined) | 108% | 9.2 µM [rising, partial curve] | 6.51 µM [rising, single point]
60 | COc1cc(C(=O)NCC(c2cccs2)N2CCOCC2)cc(OC)c1OC (centres undefined) | -4.7% | – | 6.51 µM [rising, single point]
61 | CN(C)c1ccc(/C=N/Nc2ccc(-n3ccnc3)nn2)cc1 | 38.7% | 0.00461 µM [rising, full curve, poor fit] | –
62 | O=[N+]([O-])c1ccc(N/N=C/c2sc(N3CCOCC3)nc2-c2ccccc2)c(S(=O)(=O)Nc2ccc(Cl)cc2)c1 | 135% | 29.1 µM [rising, partial curve] | –

Full records as entered above.
`CCC(C)NC(=O)c1cc(-c2ccc(OC)cc2)on1` (centres undefined) is listed with cell number change: 108%; AC50 [1]: 9.2 µM [rising, partial curve]; AC50 [2]: 6.51 µM [rising, single point]
`Cc1c(N=Cc2cc3c(cc2Cl)OCO3)c(=O)n(-c2ccccc2)n1C` is listed with cell number change: -9.86%; AC50 [2]: 0.00411 µM [falling, full curve, poor fit]
`CC1(C)CC(=O)C2=C(C1)N=C1SCCC(=O)N1C2c1ccc(C(F)(F)F)cc1` (centres undefined) is listed with cell number change: 33.9%; AC50 [1]: 10.3 µM [rising, single point]
`Cc1ccccc1[C@@]1(C)ON(c2ccccc2C(F)(F)F)C1=O` is listed with cell number change: -86.4%; AC50 [1]: 20.6 µM [falling, partial curve]
